Results: patent publication US20210171598A1, “PEPTIDE HORMONE WITH ONE OR MORE O-GLYCANS” (priority 2017, published 2021)

Assay: O-glycoproteomics (LWAC enrichment, nLC-MS/MS) identification of O-glycosites on peptide hormones
Conditions: O-glycosite; for Site position (identified or conserved in humans): residue numbered from Peptide Start 1, Table 6C

| Substance | Site position (identified or conserved in humans) | Site position (Bold); identified or conserved in human, Italic: identified in non-human and not conserved (residue numbered from Peptide Start 1, Table 6B) |
| --- | --- | --- |
| Insulin B chain | T27 (Ambiguous) | – |
| Glucago-like peptide 1 (7-36) | T5 or T7 or S8 (Ambiguous) | T5 or T7 or S8 (Ambiguous) |
